{"sequences": {"note": "Chains of the proteins cited; added tags and fusions are not shown.", "UniProt S8F360": "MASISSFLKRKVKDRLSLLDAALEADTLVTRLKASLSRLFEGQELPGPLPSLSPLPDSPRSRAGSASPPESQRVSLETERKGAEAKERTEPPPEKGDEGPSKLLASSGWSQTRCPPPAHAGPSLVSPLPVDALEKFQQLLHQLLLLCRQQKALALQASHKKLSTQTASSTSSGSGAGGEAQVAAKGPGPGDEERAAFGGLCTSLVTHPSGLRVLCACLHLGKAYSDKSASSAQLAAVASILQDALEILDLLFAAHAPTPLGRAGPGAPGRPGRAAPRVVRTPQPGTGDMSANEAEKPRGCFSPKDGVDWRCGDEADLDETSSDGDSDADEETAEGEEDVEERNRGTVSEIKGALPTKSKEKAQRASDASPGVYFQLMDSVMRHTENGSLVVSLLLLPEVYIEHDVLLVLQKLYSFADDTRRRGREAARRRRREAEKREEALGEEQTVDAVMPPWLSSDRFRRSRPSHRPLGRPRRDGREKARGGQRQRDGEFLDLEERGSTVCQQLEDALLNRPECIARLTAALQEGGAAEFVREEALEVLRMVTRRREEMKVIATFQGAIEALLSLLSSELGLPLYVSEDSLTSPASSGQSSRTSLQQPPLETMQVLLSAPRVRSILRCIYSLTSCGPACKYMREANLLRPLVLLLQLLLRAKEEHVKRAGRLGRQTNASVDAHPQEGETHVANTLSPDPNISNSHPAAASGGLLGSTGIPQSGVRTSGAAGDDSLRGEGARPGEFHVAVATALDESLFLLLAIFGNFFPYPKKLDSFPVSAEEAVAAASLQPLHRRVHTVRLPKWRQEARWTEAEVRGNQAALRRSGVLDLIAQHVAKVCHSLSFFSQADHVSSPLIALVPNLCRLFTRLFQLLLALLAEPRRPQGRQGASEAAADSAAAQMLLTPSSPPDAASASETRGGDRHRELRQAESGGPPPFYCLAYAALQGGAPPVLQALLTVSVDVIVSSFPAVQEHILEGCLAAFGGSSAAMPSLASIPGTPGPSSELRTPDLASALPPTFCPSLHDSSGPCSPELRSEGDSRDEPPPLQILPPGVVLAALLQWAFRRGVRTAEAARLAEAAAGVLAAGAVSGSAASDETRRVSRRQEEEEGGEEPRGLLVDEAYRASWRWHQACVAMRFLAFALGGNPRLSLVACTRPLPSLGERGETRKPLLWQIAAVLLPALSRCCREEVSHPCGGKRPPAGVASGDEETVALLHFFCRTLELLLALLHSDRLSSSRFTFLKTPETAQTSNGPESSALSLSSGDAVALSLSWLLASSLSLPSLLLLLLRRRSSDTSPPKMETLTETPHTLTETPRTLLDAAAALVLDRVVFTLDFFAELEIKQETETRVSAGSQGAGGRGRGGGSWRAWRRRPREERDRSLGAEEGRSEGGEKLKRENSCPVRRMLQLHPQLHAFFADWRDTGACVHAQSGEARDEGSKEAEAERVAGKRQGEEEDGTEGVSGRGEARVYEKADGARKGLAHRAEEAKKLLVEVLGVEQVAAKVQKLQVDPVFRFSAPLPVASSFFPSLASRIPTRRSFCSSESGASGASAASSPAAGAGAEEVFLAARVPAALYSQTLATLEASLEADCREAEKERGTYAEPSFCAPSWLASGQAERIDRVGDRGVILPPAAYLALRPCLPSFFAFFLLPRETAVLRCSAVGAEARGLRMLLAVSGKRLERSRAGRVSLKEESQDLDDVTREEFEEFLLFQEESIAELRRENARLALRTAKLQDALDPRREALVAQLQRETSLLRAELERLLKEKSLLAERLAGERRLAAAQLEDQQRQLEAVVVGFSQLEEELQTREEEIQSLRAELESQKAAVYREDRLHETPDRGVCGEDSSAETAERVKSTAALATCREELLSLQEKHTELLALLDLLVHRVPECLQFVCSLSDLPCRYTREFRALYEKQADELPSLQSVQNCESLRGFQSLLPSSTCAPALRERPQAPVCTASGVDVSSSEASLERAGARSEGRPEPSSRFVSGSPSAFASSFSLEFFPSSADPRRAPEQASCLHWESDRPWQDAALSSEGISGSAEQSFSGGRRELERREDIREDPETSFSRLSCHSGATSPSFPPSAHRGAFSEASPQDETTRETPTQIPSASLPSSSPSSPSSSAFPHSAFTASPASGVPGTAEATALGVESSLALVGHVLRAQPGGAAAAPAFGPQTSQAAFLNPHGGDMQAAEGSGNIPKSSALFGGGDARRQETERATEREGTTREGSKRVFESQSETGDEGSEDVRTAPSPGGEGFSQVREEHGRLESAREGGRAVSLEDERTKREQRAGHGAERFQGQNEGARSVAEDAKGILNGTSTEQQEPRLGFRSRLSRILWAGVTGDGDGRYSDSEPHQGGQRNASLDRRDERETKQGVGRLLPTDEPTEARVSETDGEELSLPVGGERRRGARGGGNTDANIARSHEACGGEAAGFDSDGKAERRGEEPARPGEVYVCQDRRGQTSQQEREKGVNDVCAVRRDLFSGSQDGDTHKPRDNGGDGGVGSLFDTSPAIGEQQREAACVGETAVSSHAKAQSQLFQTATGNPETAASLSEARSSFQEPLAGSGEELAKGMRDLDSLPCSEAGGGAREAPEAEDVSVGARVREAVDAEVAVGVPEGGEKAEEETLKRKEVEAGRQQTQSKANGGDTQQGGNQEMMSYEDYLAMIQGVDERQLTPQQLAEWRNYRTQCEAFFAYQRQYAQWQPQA"}, "source": "paper PMC10746232", "binders": {"B1": {"name": "TgCog7^AID-HA (protein, UniProt S8FAE0 1-1223)", "chain": "MASPVPKPPEGALPGSPLPSSNSSSSASLQSSAVSAAFNALSAPTFSAGAWLDACIERSLEQQAFEAPPVASSSLASSPETETARLADRLESTLESVLAEVQRRIATTFEALDTKSQDLSSAAPTYVKQVEELSGKLVDARRTVDDALKALSCVDFEHQESLRRLAALDALRRHFHRCRRVLLVLHQWDFRVGEIELLLHSFQHQETPLIANPASSVDGTPFHPHQPSQGQGLSDDADASTFSSSSFSSSASSASSASSASSSSSSSAFEHAASTARLRSLAQAAMHAAALKNAVQELKAFGEFSARVRAAELLEKRVVVVTRSLMRSAFLSGDAESLRVAMNISVTLNHSAQLQQELSKCFGDQLRQAWLATWARTPAGRRRREAEVAAGACWALAPNERLHGERELYAEEQGDGFPREEADACGDDASVEKEQRTIGEPEALLLYFEEFTRLLEERSSLLRLFADELSQAEIRALRASSDDASSTSSCSSAAHSASSSSRSADPQGPFGCGRRGEEETSGVAGAASQAPHRPLRLHRTASRLHTRVWEETLLLCLKVGGEAPNAEVEAFLAAGGADLEEDDEERMARIEKLLQTYDMGFTLLSATPVVAESEPHIPQLWRKISSTCLFFPALLLRQFNAALWKSSRRFFLQDAPSVRPFDKRQAPSQVVMELEGRLDRTLQRLSSPALAALSPGAFHLCLAPCLLSAVDDAVAEFLSSLSPVLQTFAHTIQYKTQSIQDTQNRERERDLPARGNAGDFLPLDVLPTSLPFDLSLLNACMQQYLLFASAQQKLAQGAAVVFDEALTGHRRHSRFNVYLRELTNLHPDLLVYPSPSAVAHSASLLPSSCSSSFSAPPLPSVLPASFAAYTKLRHASRALVLLACSAPCSLFLHRFYPLCWGAISVSSSAQRAESLLREQRESINGQESKAILPSSVSTAAGEFFLQLLPHLEVAAAGAKGSEKRETEVESSDESLIAGLLSVVFTSFCRALLVADLPTRLTKEEPVQRGELRENMLLQLQADARYLASLSRSLGYDPEEESSFLFFETESGEGSEKARDAQADKQDQQTKDEERESSDLGETKKEEKDEAVRQERKRGPTWMIGLLLRGLDALLGTAEGETSAEPSAAKREEIKNNADENSSSLGCLGAFEAHLRRKFAREKNETKGESPSDSERVRAARAVAAAALESPSSDLCKSEKEKEDEEVTLVWAVLCQLGVFPSPL"}}, "target": "TGME49_289120^myc (Toxoplasma gondii (endogenous in RH tachyzoites)) (UniProt S8F360)", "experiment": "co-IP; myc-tagged bait (TgCOPI-δ^myc, TgSec31^myc or Tg289120^myc) isolated on α-Myc magnetic beads from parasites co-expressing endogenous TgCog3^AID-HA or TgCog7^AID-HA; western blot with α-HA and α-myc; extraction in PBS with 263 mM NaCl, 1% Triton X-100", "note": "No constants are given. Whether binding was seen depends on the method and setting. In cells and extracts the contact can be indirect. Some entries that bind do so weakly or less than the wild type. Where a sequence is shown, tags or fusion partners need not be part of it.", "data": [{"binder": "B1", "values": [{"measurement": "binding", "result": "binds"}]}]}
